This passage reports AC50 results from PubChem BioAssay AID493014 (National Center for Advancing Translational Sciences (NCATS), 2011).

The test can be described thus: qHTS Assay to Find Inhibitors of Chronic Active B-Cell Receptor Signaling. The settings on record: ABC-DLBCL IkBa-CBG/CBR reporter, luminescence ratio (green luciferase fused to IkBa over red control in TMD8 lymphoma cells), 4 h. Summed up: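 TMD8 human ABC-DLBCL cells with doxycycline-inducible IκBα–green luciferase fusion and unfused red luciferase, in 0.5% FBS medium; compounds up to 46 uM, 4 h at 37C. Green/red luminescence ratio, filter-overlap corrected, fitted to concentration-response curves.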
(In qHTS, concentration-response curves come from the screen itself.)

The mark [1] stands for this setting: measured here: CBR red luminescence, cell number.
Setting [2] is: measured here: IkBa-CBG green luminescence.

In general, AC50 refers to the concentration giving half of the maximal activity seen.

The other results are listed elsewhere or left out. The main result of the screen is listed elsewhere. These columns were measured beside it and carry no call. The list favours compounds with an active or inconclusive main result. The note in brackets gives the kind of curve behind each potency; many fits are weak.

Regarding `CC(C)N(C(=O)Cn1cnc2cc([N+](=O)[O-])ccc2c1=O)C(C)C`, the AC50 under setting [1] was 5.01 µM [falling, full curve, poor fit].
Take `N/C(=N\OC(=O)c1cccs1)c1cccc([N+](=O)[O-])c1`: the AC50 under setting [1] was 7.94 µM [rising, partial curve, poor fit].
The same measure, in the same setting: the figure for `COc1ccc(NC(=O)C2C(c3ccccc3)C2(Cl)Cl)c(OC)c1` (stereo not drawn) is 35.5 µM [rising, single point].
For `CC(=O)Nc1cccc(Nc2nc(-c3ccccc3)nc3ccccc23)c1`, the AC50 under setting [1] is 35.5 µM [falling, single point].
For the compound `COc1cc(OC)c(NC(=O)C2CCCN2C(=O)OCc2ccccc2)cc1Cl` (stereo not drawn), the AC50 under setting [1] is 2.51 µM [rising, partial curve, poor fit].
On the same count and under the same terms, the figure for `O=[N+]([O-])c1ccc(N2CCN(CC(O)COc3ccccc3)CC2)cc1` (stereo not drawn) is 11.2 µM [rising, partial curve]; for `CCOCc1c(C(=O)Nc2ccc3nc(N4CCOCC4)sc3c2)oc2ccccc12` it is 23.1 µM [falling, single point].
`CN(C)S(=O)(=O)c1cccc(C(=O)OCC(=O)c2ccc3c(c2)NC(=O)CO3)c1`: under setting [1], the AC50 is 35.5 µM [falling, single point].
Take `CCOc1ccc(C(=O)Nc2cccc(C(=O)O)c2C)cc1Cl`: the AC50 under setting [1] was 16.4 µM [falling, partial curve].
Same read-out and setting: the figure for `Cc1ccc(Cn2nnc3c(=O)[nH]c(C4CCN(S(=O)(=O)c5ccccc5)CC4)nc32)cc1` is 35.5 µM [falling, single point].
For the compound `Cc1ccccc1Oc1cc(-n2ncc(Cl)c(Cl)c2=O)ncn1`, the AC50 by setting is: under setting [1], 4.11 µM [falling, full curve]; under setting [2], 3.66 µM [rising, full curve].
For `Cn1c(=O)n(C)c2cc([N+](=O)[O-])c(N3CCN(C(=O)c4ccc(Cl)cc4)CC3)cc21`, the AC50 under setting [1] was 0.562 µM [falling, partial curve, poor fit].
Still for that read-out and setting: the figure for `Cc1ccc(OCC(=O)O/N=C(\N)Cc2ccc(Cl)cc2)cc1` is 12.6 µM [rising, partial curve, poor fit]; for `COc1ccc(OC)c(C2=NOC(C(=O)Nc3cccnc3)C2)c1` (stereo not drawn) it is 16.4 µM [falling, partial curve, poor fit].
The same measure, in the same setting: the figure for `CC(=O)Nc1ccc(-c2nc3ccccc3o2)cc1` is 11.2 µM [falling, single point]; for `CCc1ccccc1OCC(=O)Nc1cccc(S(=O)(=O)NC2=NCCC2)c1` it is 13 µM [falling, partial curve, poor fit].
With `CCc1ccc(OCCNC(=O)c2ccc(S(=O)(=O)N(C)C)cc2)cc1`, the AC50 under setting [1] was 2.91 µM [falling, single point].
With `O=C(O)CC1(CC(=O)Nc2cc3ccccc3cn2)CCCCC1`, under setting [1], the AC50 was 11.2 µM [falling, partial curve, poor fit].
For the compound `O=C(Oc1c(CN2CCOCC2)cc(Cl)c2cccnc12)c1ccc(F)cc1`, the AC50 reads like this: under setting [1], 7.31 µM [rising, partial curve]; under setting [2], 2.06 µM [falling, full curve, poor fit].
As for `COc1cccc(C(=O)Nc2c(C)nn(-c3ccccc3)c2C)c1`, the AC50 under setting [1] was 5.01 µM [rising, partial curve].
The same measure, in the same setting: the figure for `COc1ccccc1C(=O)NNC(=O)c1ccc(F)cc1` is 8.2 µM [falling, partial curve, poor fit]; for `CN1CCN(C(=O)c2ccc3c(c2)N(Cc2ccc(Cl)cc2)C(=O)c2ccccc2S3=O)CC1` (stereo not drawn) it is 0.231 µM [falling, full curve, poor fit]; for `COc1ccccc1/C=C(/C#N)C(=O)O` it is 35.5 µM [rising, single point].
The same measure, in the same setting: the figure for `CCN(CC)CCNC(=O)c1ccc(NC(=O)c2ccc(C(=O)c3ccccc3)cc2)cc1` is 2.06 µM [rising, partial curve, poor fit].
In the case of `CCCCOc1ccccc1C1CC(=O)NC2=C1C(=O)CCC2` (stereo not drawn), the AC50 by setting is: under setting [1], 22.4 µM [rising, single point]; under setting [2], 12.6 µM [falling, partial curve].
Take `O=C(Nc1ccc2c(c1)OCO2)c1ccc(NC2CC2)c([N+](=O)[O-])c1`: under setting [1], the AC50 is 11.6 µM [falling, partial curve].
On to `O=C(CCl)Nc1c2c(nn1-c1ccccc1)CSC2`, for which the AC50 under setting [1] was 22.4 µM [falling, single point].
Regarding `COc1ccc(S(=O)(=O)N2CCCC2)cc1C(=O)O`, the AC50 under setting [2] is 35.5 µM [rising, partial curve, poor fit].
`CCc1ccc(OCC(=O)Nc2ccc(S(=O)(=O)Nc3ccccn3)cc2)cc1`: the AC50 under setting [1] was 22.4 µM [falling, single point].
As for `Cc1c(C(=O)OCC[N+]2(C)CCCCC2)oc2ccccc12`, under setting [1], the AC50 is 12.6 µM [rising, partial curve].
As for `Nc1ncnc2c1ncn2C1OC(COP(=O)(O)O)C(O)C1O` (stereo not drawn), under setting [2], the AC50 is 11.2 µM [falling, partial curve].
As to `COC(=O)N1C(=O)[C@](c2ccc(Cl)cc2)(C(C)C)N1C(=O)OC`, under setting [1], the AC50 was 3.16 µM [falling, partial curve].
On to `Cc1c(NC(=O)c2cc(-n3cnnc3)ccc2Cl)cccc1-c1nc2ccccc2s1`, for which the AC50 under setting [1] is 16.4 µM [falling, partial curve, poor fit] and the AC50 under setting [2] was 7.31 µM [rising, partial curve, poor fit].
Consider `O=[N+]([O-])c1ccc(SCc2c(F)cccc2Cl)nc1`, for which the AC50 under setting [1] was 7.08 µM [rising, partial curve, poor fit].
As to `COc1ccc(S(=O)(=O)N2CCCCC2)cc1NC(=O)Cn1cnc2c1c(=O)n(C)c(=O)n2C`, the AC50 under setting [1] is 20.6 µM [falling, partial curve, poor fit].
Same read-out and setting: the figure for `Cc1nn(-c2nc3ccccc3[nH]2)c(N)c1-c1ccc(Cl)cc1` is 0.316 µM [rising, full curve, poor fit]; for `CC(=NCc1cccc(Cl)c1)c1nc(-c2ccco2)oc1O` it is 2.06 µM [falling, partial curve, poor fit]; for `COc1ccc(NC(=O)C2CCN(C(=O)c3ccc(OC)cc3)CC2)cc1` it is 0.651 µM [falling, full curve].
Same read-out and setting: the figure for `CCOC(=O)c1c(N)n[nH]c1-c1ccccc1` is 32.6 µM [falling, single point].
